Source: PubChem BioAssay AID651660 (Broad Institute, 2012)
Several values for one entry are separate records, joined by “and”; a condition that tells them apart may be missing. Identical values can stand only once. The campaign covered roughly 1,900 compounds. About 15 (0.8%) were called active.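 The calls were made as follows: active = every replicate shows at least 50% inhibition; inconclusive = mean inhibition at least 50% but some replicate below; inactive = the rest.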 This is one part of the list.

Amino acid sequences for entries named in this document (tags omitted). A change or cut given only in a name is not applied to a line headed by its entry.
UniProt P43351: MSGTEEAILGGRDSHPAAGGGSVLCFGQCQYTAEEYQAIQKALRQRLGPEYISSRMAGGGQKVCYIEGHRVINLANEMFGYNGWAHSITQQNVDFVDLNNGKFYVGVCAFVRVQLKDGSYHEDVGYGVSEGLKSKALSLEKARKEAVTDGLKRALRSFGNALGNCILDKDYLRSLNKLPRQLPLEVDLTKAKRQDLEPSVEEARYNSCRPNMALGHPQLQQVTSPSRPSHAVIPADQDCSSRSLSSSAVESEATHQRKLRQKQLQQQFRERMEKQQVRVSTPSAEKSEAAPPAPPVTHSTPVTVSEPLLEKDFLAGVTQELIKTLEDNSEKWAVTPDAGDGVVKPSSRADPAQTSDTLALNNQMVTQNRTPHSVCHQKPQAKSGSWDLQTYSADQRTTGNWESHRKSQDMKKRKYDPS

target: DNA repair protein RAD52 homolog (Homo sapiens) (UniProt P43351); assay: RAD52 ssDNA annealing inhibitors, primary screen, biochemical, FRET, single point (AID 651660); details: Recombinant RAD52 ssDNA annealing, FRET fluorescence, 30 min; at 18.7 µM; stronger effect = higher value;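 also: 0% = median of neutral control wells and 100% = median of positive control wells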

SMILES	inhibition
OC(CCN1CCCCC1)(c1ccccc1)c1ccccc1	inactive: -3.42%
CCOc1ccc2[nH]c3c(=O)n(CCc4ccc(OC)cc4)cnc3c2c1	inactive: -2.65%
COc1c2occc2c(OC)c2c(=O)cc(C(F)(F)C(F)(F)F)oc12	inactive: -8.16%
COc1ccc2[nH]cc(C3N4CC5(C)CN3CC(C)(C4)C5=O)c2c1 (centres undefined)	inactive: -5.64%
Cc1ccccc1C(=O)NNc1ncnc2c1cnn2C	inactive: -8.12%
CC(=O)N(CCC1(C(C)C)CCOC(C)(C)C1)Cc1ccco1 (centres undefined)	inactive: -19%
CC(=O)N=c1sc(S(N)(=O)=O)nn1C	inactive: -1.8%
CC(C)NNC(=O)c1ccncc1	inactive: 4.97%
Cc1cc(C)c(NC(=O)NC(=O)C(Cl)(Cl)Cl)c(C)c1	inactive: -7.37%
O=C1c2cccc3cccc(c23)C(=O)N1c1ccccn1	inactive: -4.1%
O=C(O)CCC(=O)c1ccc(-c2ccccc2)cc1	inactive: -4.45%
CN1CCN2c3ccccc3Cc3ccccc3C2C1 (centres undefined)	inactive: -1.92%
COc1ccc(/C=C/C(=O)c2cc3cccc(OC)c3oc2=O)cc1	inactive: -32.1%
CCN(CC)Cc1c[nH]c2c(C(=O)OC)cccc12	inactive: 1.41%
O=C(O)c1cnccn1	inactive: -7.16%
Cc1ncoc1C(=O)N1CCCC(C(=O)c2ccc(-c3ccccc3)c(F)c2)C1 (centres undefined)	inactive: -9.52%
COc1ccc(-c2[nH]ncc2CN(C)C(C)c2ccon2)c(OC)c1 (centres undefined)	inactive: -5.02%
C=CCc1ccc(OCC(O)COc2ccc(CC=C)cc2OC)c(OC)c1	inactive: 4.32%
CCSC(=O)CCCCCCCCCCCO	inactive: 9.6%
CCOC(=O)C1=C(C)NC(C)=C(C(=O)OC)C1c1cccc(Cl)c1Cl (centres undefined)	inactive: 14.9%
Cc1ccc2[nH]c3c(c2c1)CCNC3=O	inactive: -16.6%
CCOc1ccc(C(=O)NC(C)C2COc3ccccc3O2)cc1 (centres undefined)	inactive: 0.651%
C[C@H](CCC(=O)O)[C@H]1CC[C@H]2[C@@H]3C(=O)C[C@@H]4CC(=O)CC[C@]4(C)[C@H]3CC(=O)[C@]12C	inactive: -6.67%
Cc1nc2sccn2c(=O)c1CCN1CCC(=C(c2ccc(F)cc2)c2ccc(F)cc2)CC1	inactive: 47.2%
CC1(C)CC(=O)C2=C(C1)c1c(ccc3ccccc13)NC2c1ccco1 (centres undefined)	inactive: -27.1%

SMILES	inhibition
O=C(O)CCCCCN=C1CCc2ccccc2N1	inactive: -14.8%
Cc1nc2ccccc2n1CC(O)Cn1c2ccccc2c2ccccc21 (centres undefined)	inactive: 3.8%
CCC1(c2ccccc2)NC(=S)N(c2ccc(C)c(C)c2)N1 (centres undefined)	inactive: -0.264%
COC(=O)C1=NN(C(=O)c2cccc(Br)c2)C(O)(c2ccc(Cl)cc2)C1 (centres undefined)	inactive: -50.8%
Cc1ccc2c(CN3CCN(Cc4ccc5c(c4)OCO5)CC3)cc(=O)oc2c1C	inactive: -4.35%
CC(=O)OCC1OC(n2ccc(=O)[nH]c2=O)C(O)C1O (centres undefined)	inactive: -5.18%
CC(NCCc1ccc(O)cc1)C(O)c1ccc(O)cc1 (centres undefined)	inactive: -8.85%
COc1cccc(CC(=O)NCC2COc3ccccc3O2)c1OC (centres undefined)	inactive: 3.16%
Cc1ccc(/C=N/NC(=O)C2(C)CC2(Br)Br)cc1 (centres undefined)	inactive: 7.95%
O=[N+]([O-])c1ccc(O)c2ncccc12	inactive: -28.6%
COc1ccc(C2OC[C@H]3O[C@H](O)[C@H](NC(C)=O)[C@@H](O)[C@@H]3O2)cc1 (some centres undefined)	inactive: -10.9%
CC(=O)Oc1ccc(C(c2ccc(OC(C)=O)cc2)c2ccccn2)cc1	inactive: 12.8%
N=c1nc(N2CCCCC2)cc(N)n1O	inactive: 8.37%
Nc1ccc(C(=O)O)c(O)c1	inactive: -7.23% and inactive: -328%
Cc1ccc2c(c1)c(C)cc(=O)n2CCC(=O)O	inactive: 7.6%
CC(C)(C)NCC(O)COc1ccccc1C(=O)CCc1ccccc1 (centres undefined)	inactive: 9.53%
O=C(O)c1ccccc1Nc1cccc(C(F)(F)F)c1	inactive: -6.2%
O=C(NCCc1nc2ccccc2[nH]1)c1cccc(Br)c1	inactive: 6.58%
CN(C)CCOC(=O)C(c1ccccc1)C1(O)CCCC1 (centres undefined)	inactive: -4%
C[C@]12CCC3C(CC=C4C[C@@H](O)CC[C@@]43C)C1CCC2[C@]1(C)CCC(=O)O1 (some centres undefined)	inactive: -4.24%
CCOC(=O)c1oc2cc(OCC(N)=O)ccc2c(=O)c1-c1ccc(OC)c(OC)c1	inactive: 2.08%
Nc1[nH]c(=O)ncc1F	inactive: -5.6%
CC(C)(C)OC(=O)N1CC(O)CC1C(=O)OCC(=O)c1ccc(Cl)cc1 (centres undefined)	inactive: -8.17%
COc1ccc(/C=C\C(=O)c2c(O)ccc3c(C)cc(=O)oc23)cc1OC	inactive: -9.57%
S=C(NCCOCCOCCNC(=S)Nc1ccccc1)Nc1ccccc1	inactive: 4.23%

SMILES	inhibition
NS(=O)(=O)c1cc2c(cc1Cl)NC(C1C[C@H]3C=C[C@@H]1C3)NS2(=O)=O (some centres undefined)	inactive: 4.78%
CCCCOc1ccc(C(=O)CCN2CCCCC2)cc1	inactive: -1.53%
C[C@H](NC(=O)C1(c2ccccc2)CCN(C(=O)[C@H]2CSCN2C(=O)OC(C)(C)C)CC1)C(=O)O	inactive: -1.7%
COc1cc(CO)ccc1OCc1nnnn1-c1ccc(C)cc1	inactive: 5.41%
COCCNC(=O)CSc1ccc(Cl)cc1	inactive: -17.2%
OC(CCN1CCCC1)(c1ccccc1)C1CCCCC1 (centres undefined)	inactive: 4.58%
CC(C)(C)c1ccc(/C=C/C(=O)N2CCCCC2)cc1	inactive: -9.82%
NCCc1ccc(O)c(O)c1	inactive: 6.41%
Cc1nonc1CN(C)C(=O)c1ccc(OC2CCN(C(=O)c3cccnc3)CC2)cc1	inactive: -15.6%
CC1=CC2(O)OCCN(CCO)C2=CC1=O (centres undefined)	inactive: -2.13%
CC(=O)c1cn(C)c(=O)[nH]c1=O	inactive: -3.65%
COc1cccc(N2CC34C=CC(O3)C(C(=O)O)C4C2=O)c1 (centres undefined)	inactive: -4.05%
C[C@H](CS)C(=O)N1CCC[C@H]1C(=O)O	inactive: -0.453%
COc1ccc(/C=C(/C#N)c2cccnc2)cc1OC	inactive: -8.25%
COC(=O)c1ccc(NC(=O)c2ccccc2SC)cc1	inactive: -9.21%
CC(=O)OCC(=O)[C@@]1(O)CC[C@H]2[C@@H]3CCC4=CC(=O)C=C[C@]4(C)[C@H]3[C@@H](O)C[C@@]21C	inactive: -1.72%
CC(=O)C1=C(O)C(=O)OC1c1ccc(C)cc1 (centres undefined)	inactive: -9.67%
C[C@]12CC[C@@H]3c4ccc(O)cc4C(=O)C[C@H]3[C@@H]1CC[C@@H]2O	inactive: 4.17%
COc1ccc(OC)c(C(=O)c2coc3ccc(O)cc23)c1	inactive: -0.349%
COc1cc(NC(=S)NC(=O)c2cccs2)ccc1NC(=O)C(C)C	inactive: 0.955%
NNC(=O)c1ccncc1	inactive: -4.11%
COc1ccc(C2C3C(C)=NN=C3CC(C)(O)C2C(C)=O)cc1 (centres undefined)	inactive: -7.78%
COc1cccc(OCc2nnc(-c3cccs3)o2)c1	inactive: 3.65%
CC12CCC(C(=O)N3CCCCC3)([C@H](Br)C1=O)C2(C)C (some centres undefined)	inactive: -5.47%
COc1ccccc1OS(=O)(=O)c1ccc(NC(C)=O)cc1	inactive: 3.22%

SMILES	inhibition
CC(=O)Nc1ccc(CN2CCN(C3CCCCC3)C(CCO)C2)cc1 (centres undefined)	inactive: -3.98%
CC1(C)O[C@@H]2C[C@H]3[C@@H]4C[C@H](F)C5=CC(=O)CC[C@]5(C)[C@H]4[C@@H](O)C[C@]3(C)[C@]2(C(=O)CO)O1	inactive: 4.52%
CC12CCC(C(=O)NCc3ccc4c(c3)OCO4)(CC1=O)C2(C)C (centres undefined)	inactive: -2.64%
CN1C(=O)NC(c2ccc(O)cc2)C2=C1CN(c1cccc3ccccc13)C2=O (centres undefined)	inactive: -2.34%
Cc1ccccc1N1C(N)=NC(N)=NC1(C)C	inactive: -5.65%
COCCCN1C(=O)/C(=C\c2cccs2)C(C(=O)OC)=C1C	inactive: -5.14%
O=C(O)c1cccnc1	inactive: -0.217%
CCCCc1oc2ccccc2c1C(=O)c1cc(I)c(OCCN(CC)CC)c(I)c1	active: 72.2%
Cc1cccc(N(C)C(=S)Oc2ccc3ccccc3c2)c1	inactive: 8.78%
COc1ccc(C(=O)Nc2ccccc2C(=O)NC(Cc2c[nH]c3ccccc23)C(=O)O)cc1 (centres undefined)	inactive: 3%
O=C(O)c1cc2cc(F)ccc2[nH]1	inactive: -2.8%
COc1ccc(NC(=O)C2OC3OC(C)(C)OC3C3OC(C)(C)OC23)cc1 (centres undefined)	inactive: -9.37%
O=c1c2ccccc2nc2n1CCCN2	inactive: -7.29%
CC(=O)Oc1ccc(C(=O)O)cc1OC(C)=O	inactive: -4.38%
CCOC(=O)C1=C(C)N[C@@]2(O)c3ccccc3C(=O)[C@@]12O	inactive: 2.52%
Cn1cc(CN2CCC(C(=O)N3CCCCC3)CC2)c(-c2ccccc2F)n1	inactive: -5.51%
CCOc1ccc(CC2CCC(=O)NC2=O)cc1 (centres undefined)	inactive: 0.225%
Cc1ccc(C2=NOC(=O)/C2=C\C=C\c2ccccc2)cc1	inactive: -267%
O=C(COc1cc(O)c2c(=O)c3ccccc3oc2c1)OCc1ccccc1	inactive: -3.34%
CC(C)=CCCC1=CCC2C(=O)NNC(=O)C2C1 (centres undefined)	inactive: 4.45%
COc1ccc(C(=O)Nc2nc3ccccc3c(=O)[nH]2)cc1	inactive: -2.12%
CC(C)(C)OC(=O)COc1cc(OCC(=O)OC(C)(C)C)c2c(=O)cc(-c3ccccc3)oc2c1	inactive: 17.5%
Cc1nc2c(c3c1[nH]c1ccccc13)C(=O)CC(C)(C)C2	inactive: -15.9%
CN(C)c1cc(NC(=O)CN2CCOCC2)c2ccccc2n1	inactive: 13.4%
